Consider 1 molecule from paper PMC5700101.

Sequences of proteins named here, by UniProt entry; tags and fusion partners are left off. A change or cut given only in a name is not applied to a line headed by its entry.
UniProt P52304: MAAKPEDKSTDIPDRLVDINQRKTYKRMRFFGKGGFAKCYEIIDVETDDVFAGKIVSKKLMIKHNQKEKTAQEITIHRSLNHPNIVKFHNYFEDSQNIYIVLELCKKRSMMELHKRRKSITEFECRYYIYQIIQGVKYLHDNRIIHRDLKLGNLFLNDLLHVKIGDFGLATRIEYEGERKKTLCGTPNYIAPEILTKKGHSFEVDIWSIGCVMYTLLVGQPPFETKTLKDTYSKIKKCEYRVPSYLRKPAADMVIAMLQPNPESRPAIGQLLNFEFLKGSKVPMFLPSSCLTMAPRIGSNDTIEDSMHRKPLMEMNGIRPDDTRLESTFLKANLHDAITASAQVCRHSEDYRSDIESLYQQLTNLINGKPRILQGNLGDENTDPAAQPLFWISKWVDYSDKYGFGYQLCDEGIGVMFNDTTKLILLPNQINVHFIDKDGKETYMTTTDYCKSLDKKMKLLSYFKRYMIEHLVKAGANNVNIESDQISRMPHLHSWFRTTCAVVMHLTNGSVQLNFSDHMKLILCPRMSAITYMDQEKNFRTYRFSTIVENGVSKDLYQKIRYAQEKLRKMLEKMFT

This assay addresses Polo^NLS7A-GFP (Drosophila) (UniProt P52304). Put plainly: co-IP; lysates of D-Mel2 cells transfected with Myc-Cdc25 and Polo-GFP (WT or NLS7A), immunoprecipitation with anti-GFP antibodies and Protein A Dynabeads at 4 °C; western blot.

No constants are given. Whether binding was seen depends on the method and setting. In cells and extracts the contact can be indirect. Binding can be weak; no strength is given. Sequences can lack the tags named with a protein.

B1: Myc-Cdc25(String) (enzyme, UniProt P20483 1-479)
chain: MLWETIVEENNCSMDCNISNNTSSSSSINKMSGSRRARRSLELMSMDQEELSFYDDDVVPQDQQRSASPELMGLLSPEGSPQRFQIVRQPKILPAMGVSSDHTPARSFRIFNSLSSTCSMESSMDDEYMELFEMESQSQQTALGFPSGLNSLISGQIKEQPAAKSPAGLSMRRPSVRRCLSMTESNTNSTTTPPPKTPETARDCFKRPEPPASANCSPIQSKRHRCAAVEKENCPAPSPLSQVTISHPPPLRKCMSLNDAEIMSALARSENRNEPELIGDFSKAYALPLMEGRHRDLKSISSETVARLLKGEFSDKVASYRIIDCRYPYEFEGGHIEGAKNLYTTEQILDEFLTVQQTELQQQQNAESGHKRNIIIFHCEFSSERGPKMSRFLRNLDRERNTNAYPALHYPEIYLLHNGYKEFFESHVELCEPHAYRTMLDPAYNEAYRHFRAKSKSWNGDGLGGATGRLKKSRSRLML
For B1, the binding entry was “binds”.
